Laboratory results as given in paper PMC10472690.
These are yes or no findings as the source states them, for the method shown. Binding seen in cells or lysates may run through a third protein. Some entries that bind do so weakly or less than the wild type. Blank lines part the entries; values can stand above or below the molecule they belong to.

By UniProt entry, the sequences of proteins in these tests, tags left out. Residues count along the entry.
UniProt Q9NZQ7, residues 19-290: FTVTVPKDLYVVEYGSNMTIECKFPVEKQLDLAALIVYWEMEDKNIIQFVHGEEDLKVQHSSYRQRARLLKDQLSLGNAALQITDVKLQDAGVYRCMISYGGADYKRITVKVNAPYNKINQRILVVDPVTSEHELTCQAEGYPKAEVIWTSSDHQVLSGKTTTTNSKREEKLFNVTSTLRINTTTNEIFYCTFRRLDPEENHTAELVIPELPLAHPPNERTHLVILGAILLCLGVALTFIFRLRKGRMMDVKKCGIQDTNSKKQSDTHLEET
UniProt O15169: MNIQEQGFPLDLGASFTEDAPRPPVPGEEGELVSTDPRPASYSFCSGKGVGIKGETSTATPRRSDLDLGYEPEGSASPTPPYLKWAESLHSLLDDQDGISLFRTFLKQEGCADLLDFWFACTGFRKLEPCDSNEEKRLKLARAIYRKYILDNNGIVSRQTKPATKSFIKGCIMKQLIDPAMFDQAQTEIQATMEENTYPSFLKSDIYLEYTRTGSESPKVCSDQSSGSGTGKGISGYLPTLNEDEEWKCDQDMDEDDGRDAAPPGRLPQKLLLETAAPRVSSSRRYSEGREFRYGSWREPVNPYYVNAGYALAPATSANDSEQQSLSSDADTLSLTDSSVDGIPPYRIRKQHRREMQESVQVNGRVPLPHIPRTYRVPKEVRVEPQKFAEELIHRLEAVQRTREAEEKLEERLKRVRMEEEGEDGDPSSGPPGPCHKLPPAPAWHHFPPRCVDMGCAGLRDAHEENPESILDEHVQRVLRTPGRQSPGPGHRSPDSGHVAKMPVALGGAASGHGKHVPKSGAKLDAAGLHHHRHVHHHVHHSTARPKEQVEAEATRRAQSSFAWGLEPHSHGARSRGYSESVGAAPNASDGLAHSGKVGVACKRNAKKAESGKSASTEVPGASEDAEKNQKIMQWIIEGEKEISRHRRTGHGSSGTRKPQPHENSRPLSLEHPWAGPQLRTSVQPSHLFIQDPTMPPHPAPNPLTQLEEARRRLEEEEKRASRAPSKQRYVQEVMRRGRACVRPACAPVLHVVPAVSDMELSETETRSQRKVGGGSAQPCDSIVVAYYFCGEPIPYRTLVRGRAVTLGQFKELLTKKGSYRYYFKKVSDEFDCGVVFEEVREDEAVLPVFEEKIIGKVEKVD
UniProt Q6V0I7, residues 39-4981: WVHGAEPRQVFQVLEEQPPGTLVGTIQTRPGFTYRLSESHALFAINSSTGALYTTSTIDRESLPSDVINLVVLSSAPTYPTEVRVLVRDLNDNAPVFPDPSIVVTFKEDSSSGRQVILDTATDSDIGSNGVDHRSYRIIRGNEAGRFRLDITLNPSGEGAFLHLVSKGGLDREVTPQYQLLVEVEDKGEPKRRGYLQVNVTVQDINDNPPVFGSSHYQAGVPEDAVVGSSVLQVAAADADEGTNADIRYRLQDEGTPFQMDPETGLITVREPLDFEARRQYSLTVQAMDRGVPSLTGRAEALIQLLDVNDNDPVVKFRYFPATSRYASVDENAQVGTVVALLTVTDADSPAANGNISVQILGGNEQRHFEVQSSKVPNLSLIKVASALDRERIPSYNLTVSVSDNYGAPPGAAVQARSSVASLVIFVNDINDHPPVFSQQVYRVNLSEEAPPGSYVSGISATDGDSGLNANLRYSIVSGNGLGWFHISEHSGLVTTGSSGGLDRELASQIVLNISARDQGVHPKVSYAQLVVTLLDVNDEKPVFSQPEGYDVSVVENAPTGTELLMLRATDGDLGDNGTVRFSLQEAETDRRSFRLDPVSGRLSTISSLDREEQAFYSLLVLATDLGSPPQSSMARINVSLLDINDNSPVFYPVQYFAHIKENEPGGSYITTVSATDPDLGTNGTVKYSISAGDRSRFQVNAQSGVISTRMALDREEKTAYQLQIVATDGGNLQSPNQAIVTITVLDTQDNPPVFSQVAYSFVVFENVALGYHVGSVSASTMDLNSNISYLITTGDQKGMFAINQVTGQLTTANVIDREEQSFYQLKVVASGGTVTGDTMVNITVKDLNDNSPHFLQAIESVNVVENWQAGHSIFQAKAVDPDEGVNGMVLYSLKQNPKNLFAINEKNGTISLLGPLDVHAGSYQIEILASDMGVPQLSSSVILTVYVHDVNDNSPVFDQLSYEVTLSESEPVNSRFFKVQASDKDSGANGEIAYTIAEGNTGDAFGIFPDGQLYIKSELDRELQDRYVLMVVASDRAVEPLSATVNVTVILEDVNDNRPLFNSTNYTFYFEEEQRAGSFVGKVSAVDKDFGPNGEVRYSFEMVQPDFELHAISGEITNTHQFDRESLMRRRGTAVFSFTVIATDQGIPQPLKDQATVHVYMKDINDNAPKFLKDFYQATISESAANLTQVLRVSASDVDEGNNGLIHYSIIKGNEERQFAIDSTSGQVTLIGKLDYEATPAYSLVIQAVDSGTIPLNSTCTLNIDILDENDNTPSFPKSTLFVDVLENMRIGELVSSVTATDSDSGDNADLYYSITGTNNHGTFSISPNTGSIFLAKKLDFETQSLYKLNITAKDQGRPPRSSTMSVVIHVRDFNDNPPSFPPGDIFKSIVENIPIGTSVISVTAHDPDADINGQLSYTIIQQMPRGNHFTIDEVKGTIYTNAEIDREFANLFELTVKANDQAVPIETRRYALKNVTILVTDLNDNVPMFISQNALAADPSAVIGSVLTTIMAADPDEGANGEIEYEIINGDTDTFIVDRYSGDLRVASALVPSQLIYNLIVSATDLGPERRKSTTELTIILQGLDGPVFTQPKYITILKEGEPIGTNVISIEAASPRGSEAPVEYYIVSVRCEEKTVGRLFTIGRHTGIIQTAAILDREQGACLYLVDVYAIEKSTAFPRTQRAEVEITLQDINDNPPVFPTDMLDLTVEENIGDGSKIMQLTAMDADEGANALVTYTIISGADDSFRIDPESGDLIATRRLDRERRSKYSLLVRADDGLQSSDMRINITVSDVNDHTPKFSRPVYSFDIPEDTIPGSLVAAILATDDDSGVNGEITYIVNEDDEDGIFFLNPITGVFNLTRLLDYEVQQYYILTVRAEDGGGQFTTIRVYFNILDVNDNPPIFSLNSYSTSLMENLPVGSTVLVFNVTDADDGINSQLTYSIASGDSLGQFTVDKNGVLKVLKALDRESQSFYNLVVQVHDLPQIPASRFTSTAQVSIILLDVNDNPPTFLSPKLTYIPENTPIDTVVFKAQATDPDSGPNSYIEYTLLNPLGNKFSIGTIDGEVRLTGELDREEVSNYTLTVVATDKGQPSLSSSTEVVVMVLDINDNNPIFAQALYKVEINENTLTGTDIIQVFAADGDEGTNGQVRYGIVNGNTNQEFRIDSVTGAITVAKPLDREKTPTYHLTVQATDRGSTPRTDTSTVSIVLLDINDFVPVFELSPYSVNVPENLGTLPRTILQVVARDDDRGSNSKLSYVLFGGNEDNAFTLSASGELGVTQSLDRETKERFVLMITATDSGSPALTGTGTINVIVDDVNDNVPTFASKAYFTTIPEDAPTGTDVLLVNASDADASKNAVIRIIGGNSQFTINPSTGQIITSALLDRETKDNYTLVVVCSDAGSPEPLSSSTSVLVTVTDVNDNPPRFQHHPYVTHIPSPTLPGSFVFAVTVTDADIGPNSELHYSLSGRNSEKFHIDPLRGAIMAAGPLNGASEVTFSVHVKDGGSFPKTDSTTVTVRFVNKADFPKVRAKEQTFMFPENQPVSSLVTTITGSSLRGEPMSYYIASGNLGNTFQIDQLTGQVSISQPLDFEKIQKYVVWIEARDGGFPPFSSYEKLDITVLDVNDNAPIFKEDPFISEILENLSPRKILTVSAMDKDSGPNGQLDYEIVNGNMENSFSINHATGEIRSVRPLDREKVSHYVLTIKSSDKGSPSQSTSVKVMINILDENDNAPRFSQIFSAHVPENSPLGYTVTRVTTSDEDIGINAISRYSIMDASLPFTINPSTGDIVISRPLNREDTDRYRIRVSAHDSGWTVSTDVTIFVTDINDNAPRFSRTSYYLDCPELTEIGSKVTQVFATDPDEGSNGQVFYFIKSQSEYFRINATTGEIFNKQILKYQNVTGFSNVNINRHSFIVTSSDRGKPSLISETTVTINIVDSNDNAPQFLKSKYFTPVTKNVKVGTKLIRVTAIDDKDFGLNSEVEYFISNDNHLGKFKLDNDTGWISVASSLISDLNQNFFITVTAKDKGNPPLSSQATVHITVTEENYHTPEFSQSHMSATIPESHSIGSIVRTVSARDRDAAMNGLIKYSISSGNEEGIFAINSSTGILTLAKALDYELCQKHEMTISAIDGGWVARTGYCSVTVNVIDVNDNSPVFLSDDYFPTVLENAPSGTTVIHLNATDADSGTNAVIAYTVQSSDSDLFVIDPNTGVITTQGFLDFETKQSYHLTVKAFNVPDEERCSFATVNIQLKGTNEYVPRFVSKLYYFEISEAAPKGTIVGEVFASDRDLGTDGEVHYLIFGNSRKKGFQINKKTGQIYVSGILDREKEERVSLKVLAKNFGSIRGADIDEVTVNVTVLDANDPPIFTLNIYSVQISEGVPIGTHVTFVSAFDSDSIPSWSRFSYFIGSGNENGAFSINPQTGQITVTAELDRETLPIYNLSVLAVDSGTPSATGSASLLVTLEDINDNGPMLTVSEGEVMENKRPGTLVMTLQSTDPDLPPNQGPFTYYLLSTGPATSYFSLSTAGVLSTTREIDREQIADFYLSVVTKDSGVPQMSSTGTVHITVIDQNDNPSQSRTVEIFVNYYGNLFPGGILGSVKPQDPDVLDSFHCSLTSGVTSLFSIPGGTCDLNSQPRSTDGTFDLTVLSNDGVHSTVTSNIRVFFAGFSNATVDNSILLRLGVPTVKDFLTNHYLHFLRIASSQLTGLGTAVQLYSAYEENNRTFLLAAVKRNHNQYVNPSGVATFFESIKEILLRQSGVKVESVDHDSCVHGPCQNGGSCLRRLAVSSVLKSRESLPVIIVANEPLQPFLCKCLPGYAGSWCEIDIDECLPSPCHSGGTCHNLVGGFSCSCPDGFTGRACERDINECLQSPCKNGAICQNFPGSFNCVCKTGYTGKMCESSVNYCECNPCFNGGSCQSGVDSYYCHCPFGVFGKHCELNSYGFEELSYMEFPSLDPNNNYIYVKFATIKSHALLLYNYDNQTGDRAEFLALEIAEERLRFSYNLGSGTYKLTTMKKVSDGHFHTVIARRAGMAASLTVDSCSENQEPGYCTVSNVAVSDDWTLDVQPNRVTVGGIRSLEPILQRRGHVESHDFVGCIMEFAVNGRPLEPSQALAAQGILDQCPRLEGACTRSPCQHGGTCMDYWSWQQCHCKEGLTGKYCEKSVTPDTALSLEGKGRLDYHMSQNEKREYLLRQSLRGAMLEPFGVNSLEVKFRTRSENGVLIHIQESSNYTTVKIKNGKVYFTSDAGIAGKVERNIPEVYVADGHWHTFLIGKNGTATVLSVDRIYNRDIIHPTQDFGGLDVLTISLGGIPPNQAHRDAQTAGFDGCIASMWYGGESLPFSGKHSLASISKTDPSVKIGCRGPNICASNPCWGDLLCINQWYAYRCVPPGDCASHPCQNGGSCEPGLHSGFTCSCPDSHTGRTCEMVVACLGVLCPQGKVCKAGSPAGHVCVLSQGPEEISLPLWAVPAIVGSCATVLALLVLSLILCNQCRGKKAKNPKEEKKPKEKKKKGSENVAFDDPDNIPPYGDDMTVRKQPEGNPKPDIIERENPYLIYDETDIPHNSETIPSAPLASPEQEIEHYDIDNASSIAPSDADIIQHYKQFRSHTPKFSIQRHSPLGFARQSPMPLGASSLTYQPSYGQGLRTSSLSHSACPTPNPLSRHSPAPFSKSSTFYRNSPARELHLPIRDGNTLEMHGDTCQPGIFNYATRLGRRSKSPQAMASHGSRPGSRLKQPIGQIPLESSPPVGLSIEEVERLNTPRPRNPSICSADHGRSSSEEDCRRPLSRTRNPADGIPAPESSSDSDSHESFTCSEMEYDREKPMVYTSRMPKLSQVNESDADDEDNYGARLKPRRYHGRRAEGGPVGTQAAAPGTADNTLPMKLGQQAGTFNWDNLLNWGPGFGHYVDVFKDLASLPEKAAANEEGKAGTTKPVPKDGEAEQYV

Tests used:
[1] = target: β-catenin of the co-immunoprecipitation with the degradation complex (cell line not given) (UniProt P35222); experiment: co-IP; immunoprecipitation with β-catenin antibody on protein A/G beads from cell lysates, overnight at 4 °C, four washes with PBST, then immunoblotting; CTRL or FAT4 overexpression cells
[2] = target: β-catenin, human, in ME180 cells (human (endogenous in ME180)) (UniProt P35222); experiment: as above
[3] = target: β-catenin, mouse, in U14 cells (mouse (endogenous in U14)) (UniProt Q02248); experiment: as above
[4] = target: PD-L1 of the co-immunoprecipitation with GSK-3β and STT3A (cell line not given) (UniProt Q9NZQ7); experiment: co-IP; immunoprecipitation with PD-L1 antibody on protein A/G beads from cell lysates, overnight at 4 °C, four washes with PBST, then immunoblotting with GSK-3β and STT3A antibodies; CTRL or FAT4 overexpression cells

- binding [1]: binds
Molecule: AXIN1 (from UniProt O15169 1-862)

- binding [2]: binds
Molecule: FAT4 (FAT Atypical Cadherin 4), human, in ME180 cells (from UniProt Q6V0I7 39-4981)

- binding [3]: binds
Molecule: FAT4, mouse, in U14 cells (from UniProt Q2PZL6 43-4981)

- binding [4]: binds
B1: STT3A (enzyme, UniProt P46977 1-705)
chain: MTKFGFLRLSYEKQDTLLKLLILSMAAVLSFSTRLFAVLRFESVIHEFDPYFNYRTTRFLAEEGFYKFHNWFDDRAWYPLGRIIGGTIYPGLMITSAAIYHVLHFFHITIDIRNVCVFLAPLFSSFTTIVTYHLTKELKDAGAGLLAAAMIAVVPGYISRSVAGSYDNEGIAIFCMLLTYYMWIKAVKTGSICWAAKCALAYFYMVSSWGGYVFLINLIPLHVLVLMLTGRFSHRIYVAYCTVYCLGTILSMQISFVGFQPVLSSEHMAAFGVFGLCQIHAFVDYLRSKLNPQQFEVLFRSVISLVGFVLLTVGALLMLTGKISPWTGRFYSLLDPSYAKNNIPIIASVSEHQPTTWSSYYFDLQLLVFMFPVGLYYCFSNLSDARIFIIMYGVTSMYFSAVMVRLMLVLAPVMCILSGIGVSQVLSTYMKNLDISRPDKKSKKQQDSTYPIKNEVASGMILVMAFFLITYTFHSTWVTSEAYSSPSIVLSARGGDGSRIIFDDFREAYYWLRHNTPEDAKVMSWWDYGYQITAMANRTILVDNNTWNNTHISRVGQAMASTEEKAYEIMRELDVSYVLVIFGGLTGYSSDDINKFLWMVRIGGSTDTGKHIKENDYYTPTGEFRVDREGSPVLLNCLMYKMCYYRFGQVYTEAKRPPGFDRVRNAEIGNKDFELDVLEEAYTTEHWLVRIYKVKDLDNRGLSRT
